A short description of data set [1]: Fmoc solid-phase peptide synthesis; MBHA-resin (BOC); FMOC-Am-resin (FMOC); hydroxymethyl resin / diamine-carbonylbenzyloxy-resin; BOP/HOBt/NMM; BOP-Cl/DIPEA; HBTU/DIPEA. The note with it: whole synthesis, TFA salt.
Data set [2] in a line: Fmoc solid-phase peptide synthesis; Am-resin; BOP/HOBt/NMM; BOP-Cl/DIPEA; HBTU/DIPEA. The note with it: whole synthesis, scale approx. 0.25 mmol, TFA salt.
A short description of data set [3]: Boc solid-phase peptide synthesis; MBHA-resin; BOP/HOBt/NMM; BOP-Cl/DIPEA; HBTU/DIPEA. Particulars: whole synthesis, TFA salt.
The nature of data set [4]: solid-phase peptide synthesis. Particulars: whole synthesis, TFA salt.

Regarding (inip)-(N-Me-DβNal)-DTrp-Phe-Lys-amide, in data set [1] (scale approx. 0.4 mmol), the crude mass came to 75 mg and the isolated mass stood at 11 mg.

Regarding “(5-Aminovaleryl)-DPhe-βNal-βNal-Lys-amide”, the crude mass in data set [2] turned out to be 100 mg. For “[4-(N-methylamino)butanoyl]-DβNal-DβNal-Phe-Lys-amide”, the crude mass in data set [1] (scale 0.17 mmol) was determined as 120 mg. Consider “(4-aminobutanoyl)-DβNal-DβNal-Phe-Lys-amide”, for which, in data set [1] (scale 0.32 mmol), the crude mass is 245 mg.

As for (inip)-(N-Me-DβNal)-DβNal-Phe-Lys-amide, the crude mass in data set [3] (scale approx. 0.3 mmol) turned out to be 250 mg. For (inip)-DβNal-(D-Trp)-Phe-amide, the crude mass in data set [3] (scale approx. 1.14 mmol) is 240 mg. As to “(5-aminovaleryl)-(N-Me-DβNal)-DβNal-Phe-Lys-amide”, the crude mass in data set [3] (scale 0.33 mmol) was found to be 193 mg. In the case of (inip)-DβNal-DβNal-Phe-amide, in data set [3] (scale 2.28 mmol), the crude mass worked out at 560 mg and the isolated mass came out at 436 mg. With (inip)-DβNal-DβNal-Phe, the “crude purity (method not given)” value in data set [4] was “approximately 90%”. As to (inip)-DβNal-(N-Me-DβNal)-Phe-Lys-amide, in data set [3] (scale approx. 0.30 mmol), the crude mass came to 200 mg.

The values are drawn from US7094869B2 (Genentech, Inc., priority 1994, dated 2006).
